Patent publication US20130178441A1, “Methods for Extending Progression-Free Survival using 10-Propargyl-10-Deazaaminopterin” (ALLOS THERAPEUTICS, INC., priority 2010, published 2013)

Legend:
[1] = test system: patients with relapsed or refractory PTCL; experiment: PROPEL analysis by treatment duration: treatment discontinuation and adverse events; type: in vivo, human; details: 45 patients who did not complete cycle 1
Description: The pivotal PROPEL study of pralatrexate (FOLOTYN®) in patients with relapsed or refractory PTCL reported a rapid response to treatment in a heavily pretreated patient population. The majority of patients (63% of responders) responded by their first assessment at 7 weeks (the end of cycle 1). The present analysis assessed if there were any unique characteristics of patients who were unable to complete the first cycle of therapy and to assess the outcomes of patients who received ≧1 or ≧2 cycles of pralatrexate. Pralatrexate, a folate analog targeting dihydrofolate reductase, was approved in the United States for treatment of relapsed or refractory PTCL based on the PROPEL study. Methods: In PROPEL, patients received 30 mg/m^2 pralatrexate once weekly for 6 weeks in successive 7-week cycles. […] Cycle completion was determined receiving ≧1 dose in the following cycle. Thus, the subgroup of patients who completed ≧1 (n=64) includes those patients who only completed 1 cycle+the 43 who completed ≧2 cycles of treatment. […] However, the patients not completing cycle lwere more likely to have the angioimmunoblastic subtype (20% vs 6%). Patients in each subgroup received a median of 3 prior treatment regimens.
The most frequent reasons for treatment discontinuation were similar for patients with <1 cycle, ≧1 cycle or ≧2 cycles, although the incidence of discontinuation was lower for patients with ≧1 or 2 cycles. […] However, the percentage of patients in whom mucosal inflammation led to treatment discontinuation was similar (<1: 4%; ≧1: 6%; ≧2: 2%). […] Patients who were unable to complete cycle 1 were more likely to have quickly progressed through multiple lines of therapy and were more likely to have the angioimmunoblastic subtype, which a subtype is thought to have a different biology than other PTCL subtypes and lower chemosensitivity. Further analysis of this subtype is warranted.

[2] = test system: relapsed/refractory PTCL; experiment: PROPEL subset analysis: patients previously treated with ICE-based regimens (N=20) vs other patients (n=89); type: in vivo, human
Description: The prognosis of aggressive PTCL is dismal. Investigators have developed salvage regimens attempting to improve outcomes for patients with relapsed or refractory disease. One such regimen frequently used is ifosfamide, carboplatin, and etoposide (ICE) or ICE-based regimens (eg, and rituximab-ICE [RICE] and dexamethasome-ICE [DICE]). These regimens can have response rates approaching 70% and patients may proceed to a stem cell transplant, yet most patients tend to relapse quickly (Horwitz et al Blood 2005; 106:a2679). Thus, optimal approaches for patients with relapsed or refractory disease are needed, and agents based on a unique mechanism of action warrant study. This analysis was conducted to determine if pralatrexate offered a beneficial treatment option for patients after treatment with an ICE/RICE/DICE regimen. Methods: Pralatrexate was administered via intravenous push over 3 to 5 minutes at 30 mg/m^2/week for six weeks in 7-week cycles with concurrent 1 mg vitamin B12 intramuscular every 8 to 10 weeks and folic acid 1.0 to 1.25 mg by mouth once daily. 109 patients were treated with pralatrexate in the PROPEL study. All patients in the PROPEL study had received at least 1 prior therapy for PTCL. A subset of 20 patients had received ICE, RICE or DICE at some point prior to treatment with pralatrexate. […]

## C#CCC(Cc1cnc2nc(N)nc(N)c2n1)c1ccc(C(=O)N[C@@H](CCC(=O)O)C(=O)O)cc1 (mixture of isomers) [Pralatrexate, (2S)-2-[[4-[(1RS)-1-[(2,4-diaminopteridin-6-yl)methyl]but-3-ynyl]benzoyl]amino]pentanedioic acid]
[1]
  Discontinued due to progressive disease (PD): 62%
  Discontinued due to stem cell transplant after achieving a response to pralatrexate: 2%
  Discontinued for other reasons: 7%
[2]; 20 patients with prior ICE/RICE/DICE
  Median time on treatment: 139 days
[2]; remaining 89 patients
  Median time on treatment: 64 days
